In PubChem BioAssay AID1347075 (National Center for Advancing Translational Sciences (NCATS), 2019):
The whole screen tested about 400,000 compounds, of which about 5,500 (1.4%) were called active. Inconclusive means that the source gave no clear call. Such entries were picked first, then a sample of the others. Calls come from the whole dose curve; as a rule, active = well fitted cell-killing curve with a large enough effect; inconclusive = small, poorly fitted or top-dose-only effect, or effect the other way; inactive = flat fitted curve, though single readings scatter. Potencies of inconclusive entries are doubtful fits and often do not repeat.

Experiment: qHTS assay for MDR1-selective chemotherapeutics: Primary screen using the parental adenocarcinoma cell KB-3-1; note: nearly all actives have a fitted effect of over 60% in size
Settings: KB-3-1 viability, CellTiter-Glo ATP luminescence, 72 h; activity change, negative = cytotoxic: at 46.1 µM (top of the series)
Summary of the method: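 KB-3-1 parental drug-naive adenocarcinoma cells in DMEM/10% FBS, incubated 72 h at 37 C with pin-transferred compounds across a concentration series. Viability by CellTiter-Glo luminescence; concentration-response curves fitted after normalization.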
% is set by controls: 0 for no effect and ±100 for the full control effect; potency is the fitted concentration of half-maximal effect.

| Structure (SMILES) | Potency | activity change, negative = cytotoxic |
| --- | --- | --- |
| O=C(c1ccc2c(=O)n(-c3ccccc3)c(=S)[nH]c2c1)N1CCCCC1 | active: 7.31 µM |  |
| CC1(C)CC(=O)C2=C(C1)OC(N)=C(C#N)C2c1cccs1 (configuration not stated) | inactive |  |
| Cc1ccc2nsnc2c1S(=O)(=O)N1CCOCC1 | inactive |  |
| Cc1cc(C)cc(C(O)c2ncc(-c3ccccc3)[nH]2)c1 (configuration not stated) | inactive |  |
| O=c1cc(-c2ccccc2)nc2cc(-c3ccc(F)cc3)[nH]n12 | inconclusive: 23.1 µM [cytotoxic, single point] |  |
| O=C(Nc1cccc2ccccc12)c1cnn2c1NC(=C1CC1)C=C2C(F)F | inactive |  |
| N#Cc1nc(-c2ccccc2F)oc1NCCN1CCOCC1 | inactive |  |
| CN(CCc1ccccc1)C(=O)c1ccc(NC(=O)Cc2ccc(NC(=O)C3CCN(C(=O)C4CCCCC4)CC3)cc2)cc1 | inconclusive: 4.61 µM [cytotoxic, full curve, poor fit] |  |
| CC(C)C[C@H](N)c1cn([C@@H](CCCCN)C(=O)N2CCNCC2)nn1 | inconclusive: 0.731 µM [cytotoxic, full curve, poor fit] |  |
| CC(/C=N/NC(=O)c1cc(-c2ccc3ccccc3c2)n[nH]1)=C\c1ccco1 | inconclusive: 29.1 µM [cytotoxic, single point] |  |
| O=c1cc(-c2ccc(F)cc2)nc(SCc2nc(-c3cccc(Cl)c3)no2)[nH]1 | inactive |  |
| O=C(C1CCCN(S(=O)(=O)c2ccc(Br)s2)C1)N1CCN(c2ccc(F)cc2)CC1 (configuration not stated) | inconclusive: 29.1 µM [cytotoxic, single point] |  |
| COC(=O)c1c(C)[nH]c(C(=O)COC(=O)Cc2ccc3c(c2)OCCO3)c1C | inconclusive: 8.2 µM [cytotoxic, partial curve, poor fit] |  |
| COc1ccc2c(c1)CCc1c(C(=O)N(C)c3ccccc3)noc1-2 |  | inconclusive: -40.7% |
| Cc1ccc2c(=O)cc(C(=O)Nc3sc4c(c3C(N)=O)CCCC4)oc2c1 | inactive |  |
| CCOc1ccccc1NC(=O)C1CCCN(c2c(CC)c(C)nc3ncnn23)C1 (configuration not stated) | inactive |  |
| O=C(NCCc1ccc(Cl)cc1)C1CCN(S(=O)(=O)c2cccs2)CC1 | inconclusive: 23.1 µM [cytotoxic, single point] |  |
| Nc1ccc(C=C2C=Cc3ccccc32)cc1 | inconclusive: 10.3 µM [cytotoxic, partial curve, poor fit] |  |
| CC(=O)N1CCN(C(=O)c2cc(-c3ccc(C)o3)nc3ccccc23)CC1 | inconclusive: 18.4 µM [cytotoxic, single point] |  |
| Cn1c(N)c(C(=O)CSc2nn(-c3ccc(F)cc3)c(=S)s2)c(=O)n(C)c1=O | inconclusive: 5.17 µM [cytotoxic, partial curve] |  |
| O=C(c1c(F)c(F)c(F)c(F)c1F)N1CCN(c2cccc(C(F)(F)F)c2)CC1 | inconclusive: 29.1 µM [cytotoxic, single point] |  |
| COc1cc(NC(=O)Cn2cnc3ccccc3c2=O)c(OC)cc1Cl | inconclusive: 29.1 µM [rising, single point] |  |
| CCOC(=O)c1c(C)[nH]c(C(=O)OC)c1CCC(=O)OC | inactive |  |
| COCCNS(=O)(=O)c1ccc(OCC(=O)N2CCc3ccccc3C2)c(Cl)c1 | inactive |  |

| Structure (SMILES) | Potency | activity change, negative = cytotoxic |
| --- | --- | --- |
| N=c1c(C(=O)NCc2ccco2)cc2c(=O)n3ccccc3nc2n1CCc1ccccc1 | active: 18.4 µM |  |
| O=C(CN1CCN(S(=O)(=O)c2ccccc2)CC1)NCc1ccccc1 | inactive |  |
| Cc1cc(C)nc(SCC(=O)NC(=O)c2ccccc2O)n1 | inactive |  |
| C=C(C)C(=O)Nc1ccc2c(c1)OCCOCCOCCO2 | inactive |  |
| COc1cccc(C2C=C(c3ccc(OC)cc3OC)Nc3nnnn32)c1 (configuration not stated) | inconclusive: 20.6 µM [cytotoxic, single point] |  |
| CCCn1c(N)c(N(CCOC)C(=O)c2cc3ccccc3cc2OC)c(=O)[nH]c1=O | inactive |  |
| CN1C(=O)C2C3c4ccccc4C(c4ccccc43)[C@@H]2C1=O (some centres not stated) | inactive |  |
| C=C(C)CCC(C)N1CCC(n2nccc2NC(=O)CCOc2ccccc2)CC1 (configuration not stated) | inactive |  |
| O=C1CC(N2CCN(c3cccc(C(F)(F)F)c3)CC2)C(=O)N1c1ccccc1 (configuration not stated) | inactive |  |
| Cc1ccc(N(C(=O)CCC(=O)Nc2cc(C)on2)C(C(=O)NC2CCCC2)c2ccccc2)cc1 (configuration not stated) | inconclusive: 10.3 µM [cytotoxic, partial curve, poor fit] |  |
| CC(C)(C)OC(=O)NCCCCCc1nnc(SCc2ccccc2)o1 | inconclusive: 23.1 µM [cytotoxic, partial curve, poor fit] |  |
| O=C/C(=C\Nc1ccccn1)c1nc2ccccc2o1 | inactive |  |
| CC1=C(C(=O)OCC(C)C)C(c2ccc(OCc3ccccc3)cc2)N2C(=O)CCSC2=N1 (configuration not stated) | inconclusive: 20.6 µM [cytotoxic, single point] |  |
| COc1ccc(/C=C(/NC(=O)c2ccccc2Cl)C(=O)O)cc1 |  | inconclusive: 31.3% |
| CCOC(=O)N1CCC(NC(=O)CCc2c(C)nc3c(c(C)nn3C(C)(C)C)c2C)CC1 | inconclusive: 18.4 µM [cytotoxic, single point] |  |
| CC(=O)Oc1ccc(C2(C)CC(C)(C)Oc3cc(OC(C)=O)ccc32)c(OC(C)=O)c1 (configuration not stated) |  | inconclusive: -48% |
| Cc1nc2c(C)cccn2c1/C(O)=C1\C(=O)C(=O)N(CCN(C)C)C1c1ccco1 (configuration not stated) | inconclusive: 23.1 µM [rising, single point] |  |
| COc1ccc(C(CNC(=O)c2oc3ccc(C)cc3c2C)N2CCCCC2)cc1 (configuration not stated) | inconclusive: 25.9 µM [cytotoxic, single point] |  |
| CCCCNS(=O)(=O)c1ccc(NC(=O)C(Sc2ccccc2)c2ccccc2)cc1 (configuration not stated) | inconclusive: 23.1 µM [cytotoxic, single point] |  |
| Cc1ccccc1-c1nc(S(=O)(=O)c2ccccc2)c(N2CCCC2)o1 | inactive |  |
| COc1ccccc1NC(=O)c1oc2ccccc2c1NC(=O)c1ccccc1C(F)(F)F | inconclusive: 3.66 µM [cytotoxic, full curve, poor fit] |  |
| CN(C)CCC(=O)c1ccc2c(c1)OCO2 | inconclusive: 23.1 µM [cytotoxic, single point] |  |
| Cc1c(Cl)sn(-c2ccc(Cl)cc2)c1=O | active: 16.4 µM |  |
